Some of the results follow.
Key:
Assay in all cases: log2 fold change, soluble protein after heating vs DMSO (PISA); higher = thermal stabilisation; K562 lysate, 10 uM; active = over 0.2 and 3.5 SD of the protein, either way, in both replicates (recomputed)
[1] = compound: C1=CC=C(C=C1)[C@H](COC2=CC3=C(C=C2)NC(=O)N3)NC(=O)C4=CC=CN(C4=O)CC5=CC(=C(C=C5)F)F
Procedure, shortened: (§1)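 Values give the log-two fold change in thermal stability against solvent controls, from duplicates. Crude K562 extract at 1 mg/mL protein, made by dounce homogenisation in PBS pH 7.4 with 1 mM MgCl2, was treated with 10 μM compound for 30 min. After 3 min heating across 48°C-58°C, aliquots were pooled, adjusted to 0.5% NP-40 at 4°C and centrifuged at 21,000xg for 90 min. The supernatant was measured by TMTpro 16plex LC-MS/MS with channel sums equalised.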

Chains of the proteins cited; added tags and fusions are not shown. Lines headed by an entry give the natural chain unless they say otherwise; changes in a name come on top.
UniProt O43913: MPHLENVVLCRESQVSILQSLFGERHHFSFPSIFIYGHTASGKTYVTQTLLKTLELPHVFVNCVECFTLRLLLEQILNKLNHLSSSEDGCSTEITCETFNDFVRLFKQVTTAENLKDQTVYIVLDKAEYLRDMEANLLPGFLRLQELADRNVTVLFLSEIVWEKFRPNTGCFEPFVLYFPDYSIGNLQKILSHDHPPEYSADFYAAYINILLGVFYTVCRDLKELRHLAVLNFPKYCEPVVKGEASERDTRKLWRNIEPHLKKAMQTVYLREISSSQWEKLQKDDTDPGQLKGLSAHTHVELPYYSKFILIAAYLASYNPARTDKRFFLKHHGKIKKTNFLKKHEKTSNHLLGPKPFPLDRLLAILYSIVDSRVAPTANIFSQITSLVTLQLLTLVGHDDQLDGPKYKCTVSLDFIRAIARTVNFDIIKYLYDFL
UniProt Q8NFH4: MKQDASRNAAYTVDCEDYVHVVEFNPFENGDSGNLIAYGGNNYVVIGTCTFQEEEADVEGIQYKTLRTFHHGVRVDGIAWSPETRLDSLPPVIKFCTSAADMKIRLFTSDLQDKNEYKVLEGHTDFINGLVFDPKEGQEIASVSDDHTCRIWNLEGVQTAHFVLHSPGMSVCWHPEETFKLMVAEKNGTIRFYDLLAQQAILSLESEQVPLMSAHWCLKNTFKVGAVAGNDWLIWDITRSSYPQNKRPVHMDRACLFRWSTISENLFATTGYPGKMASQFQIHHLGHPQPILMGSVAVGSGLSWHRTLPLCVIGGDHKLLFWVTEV
UniProt P55809: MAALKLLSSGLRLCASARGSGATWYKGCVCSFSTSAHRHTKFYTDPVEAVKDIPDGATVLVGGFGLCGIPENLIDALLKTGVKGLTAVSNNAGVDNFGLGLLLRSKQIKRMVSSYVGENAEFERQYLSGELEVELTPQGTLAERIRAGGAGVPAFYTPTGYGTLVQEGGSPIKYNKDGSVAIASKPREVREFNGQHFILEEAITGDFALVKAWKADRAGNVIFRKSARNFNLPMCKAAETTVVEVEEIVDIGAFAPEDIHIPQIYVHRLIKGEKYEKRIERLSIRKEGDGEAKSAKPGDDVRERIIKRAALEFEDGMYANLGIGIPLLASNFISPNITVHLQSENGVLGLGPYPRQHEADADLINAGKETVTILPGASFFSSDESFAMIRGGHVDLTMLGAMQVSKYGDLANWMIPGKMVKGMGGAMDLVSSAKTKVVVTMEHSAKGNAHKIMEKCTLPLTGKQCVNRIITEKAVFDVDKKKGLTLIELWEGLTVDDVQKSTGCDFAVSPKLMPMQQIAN
UniProt A6NDB9: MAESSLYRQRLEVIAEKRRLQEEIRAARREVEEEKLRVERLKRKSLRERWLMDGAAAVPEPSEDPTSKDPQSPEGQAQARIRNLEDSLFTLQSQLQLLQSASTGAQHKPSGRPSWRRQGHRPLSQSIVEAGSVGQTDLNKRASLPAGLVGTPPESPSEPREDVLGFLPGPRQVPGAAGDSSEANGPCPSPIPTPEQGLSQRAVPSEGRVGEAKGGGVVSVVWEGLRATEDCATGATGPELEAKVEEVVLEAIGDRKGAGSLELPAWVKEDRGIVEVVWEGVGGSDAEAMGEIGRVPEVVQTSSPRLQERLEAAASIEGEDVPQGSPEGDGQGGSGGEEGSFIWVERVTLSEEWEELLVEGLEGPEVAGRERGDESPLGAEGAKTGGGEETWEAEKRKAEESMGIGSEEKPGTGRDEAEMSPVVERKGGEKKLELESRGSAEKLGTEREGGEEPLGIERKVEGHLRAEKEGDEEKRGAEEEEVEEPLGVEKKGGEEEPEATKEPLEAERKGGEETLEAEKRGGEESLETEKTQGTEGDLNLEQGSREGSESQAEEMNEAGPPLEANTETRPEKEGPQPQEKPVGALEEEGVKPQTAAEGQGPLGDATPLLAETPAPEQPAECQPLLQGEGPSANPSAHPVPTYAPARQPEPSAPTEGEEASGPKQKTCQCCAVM
UniProt Q9BZ23: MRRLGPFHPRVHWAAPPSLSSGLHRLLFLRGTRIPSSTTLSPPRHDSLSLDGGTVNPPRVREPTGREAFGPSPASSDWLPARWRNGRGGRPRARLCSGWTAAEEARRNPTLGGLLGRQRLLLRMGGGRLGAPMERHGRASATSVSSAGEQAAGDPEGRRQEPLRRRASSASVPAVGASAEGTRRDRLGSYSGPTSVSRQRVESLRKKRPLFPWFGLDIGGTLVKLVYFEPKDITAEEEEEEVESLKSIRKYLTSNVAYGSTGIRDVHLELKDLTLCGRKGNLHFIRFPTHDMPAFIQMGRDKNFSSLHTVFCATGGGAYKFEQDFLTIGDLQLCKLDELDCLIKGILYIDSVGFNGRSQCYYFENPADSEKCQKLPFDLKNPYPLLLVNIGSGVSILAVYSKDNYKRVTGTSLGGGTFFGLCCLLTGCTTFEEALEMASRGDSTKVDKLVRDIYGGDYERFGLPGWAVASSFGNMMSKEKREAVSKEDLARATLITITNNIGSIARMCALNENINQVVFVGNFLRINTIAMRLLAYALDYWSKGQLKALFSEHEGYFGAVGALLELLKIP
UniProt O75694: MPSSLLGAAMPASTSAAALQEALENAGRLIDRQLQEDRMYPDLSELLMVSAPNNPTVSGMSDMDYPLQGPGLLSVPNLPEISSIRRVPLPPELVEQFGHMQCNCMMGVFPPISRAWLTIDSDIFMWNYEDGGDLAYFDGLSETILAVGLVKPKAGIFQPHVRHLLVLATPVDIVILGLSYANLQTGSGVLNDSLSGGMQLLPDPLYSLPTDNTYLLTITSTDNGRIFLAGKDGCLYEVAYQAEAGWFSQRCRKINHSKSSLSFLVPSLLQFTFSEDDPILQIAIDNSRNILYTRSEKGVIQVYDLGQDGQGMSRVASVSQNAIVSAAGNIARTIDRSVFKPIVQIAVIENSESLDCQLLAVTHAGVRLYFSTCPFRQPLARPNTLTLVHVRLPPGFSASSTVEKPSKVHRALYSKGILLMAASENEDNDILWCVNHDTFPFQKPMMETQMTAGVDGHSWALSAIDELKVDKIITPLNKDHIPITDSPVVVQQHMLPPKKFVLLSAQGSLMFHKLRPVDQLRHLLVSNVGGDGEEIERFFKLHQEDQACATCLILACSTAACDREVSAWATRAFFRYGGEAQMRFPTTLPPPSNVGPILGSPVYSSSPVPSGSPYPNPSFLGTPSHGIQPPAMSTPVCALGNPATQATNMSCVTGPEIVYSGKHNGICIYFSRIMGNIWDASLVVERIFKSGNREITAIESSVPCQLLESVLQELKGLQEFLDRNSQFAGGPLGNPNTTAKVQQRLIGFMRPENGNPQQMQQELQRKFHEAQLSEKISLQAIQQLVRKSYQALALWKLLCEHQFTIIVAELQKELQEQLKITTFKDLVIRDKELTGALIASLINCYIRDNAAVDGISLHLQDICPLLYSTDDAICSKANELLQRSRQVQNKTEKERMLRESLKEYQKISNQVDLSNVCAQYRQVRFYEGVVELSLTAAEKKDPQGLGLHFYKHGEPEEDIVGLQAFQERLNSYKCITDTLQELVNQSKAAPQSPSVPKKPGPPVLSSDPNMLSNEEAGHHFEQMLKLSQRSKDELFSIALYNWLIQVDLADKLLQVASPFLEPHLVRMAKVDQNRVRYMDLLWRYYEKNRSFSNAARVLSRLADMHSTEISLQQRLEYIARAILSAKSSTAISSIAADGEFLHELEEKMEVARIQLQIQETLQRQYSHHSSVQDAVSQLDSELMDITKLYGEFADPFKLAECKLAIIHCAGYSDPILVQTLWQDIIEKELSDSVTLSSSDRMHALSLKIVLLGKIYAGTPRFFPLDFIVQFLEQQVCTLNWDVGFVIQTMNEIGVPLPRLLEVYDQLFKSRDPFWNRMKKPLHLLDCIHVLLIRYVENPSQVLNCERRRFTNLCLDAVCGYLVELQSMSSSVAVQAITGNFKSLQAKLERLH
UniProt Q32P28: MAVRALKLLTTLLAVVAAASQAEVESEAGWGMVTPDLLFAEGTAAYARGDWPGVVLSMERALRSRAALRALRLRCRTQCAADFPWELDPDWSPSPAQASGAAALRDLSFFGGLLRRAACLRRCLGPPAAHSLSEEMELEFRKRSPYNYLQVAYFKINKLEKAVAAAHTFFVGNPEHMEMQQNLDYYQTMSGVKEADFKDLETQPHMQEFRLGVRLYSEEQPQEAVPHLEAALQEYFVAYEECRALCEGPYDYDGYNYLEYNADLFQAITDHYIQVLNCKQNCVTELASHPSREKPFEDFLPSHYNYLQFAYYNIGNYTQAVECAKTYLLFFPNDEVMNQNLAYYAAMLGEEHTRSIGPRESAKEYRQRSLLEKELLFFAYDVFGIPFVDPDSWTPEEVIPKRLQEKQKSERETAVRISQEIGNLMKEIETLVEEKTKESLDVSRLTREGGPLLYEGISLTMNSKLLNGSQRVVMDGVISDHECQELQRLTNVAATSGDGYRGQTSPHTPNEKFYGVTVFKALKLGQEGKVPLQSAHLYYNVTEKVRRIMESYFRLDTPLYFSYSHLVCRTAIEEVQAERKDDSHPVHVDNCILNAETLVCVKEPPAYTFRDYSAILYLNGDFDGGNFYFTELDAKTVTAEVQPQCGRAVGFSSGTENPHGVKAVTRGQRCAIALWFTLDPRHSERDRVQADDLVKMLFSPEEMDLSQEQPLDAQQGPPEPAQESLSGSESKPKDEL
UniProt Q6N063: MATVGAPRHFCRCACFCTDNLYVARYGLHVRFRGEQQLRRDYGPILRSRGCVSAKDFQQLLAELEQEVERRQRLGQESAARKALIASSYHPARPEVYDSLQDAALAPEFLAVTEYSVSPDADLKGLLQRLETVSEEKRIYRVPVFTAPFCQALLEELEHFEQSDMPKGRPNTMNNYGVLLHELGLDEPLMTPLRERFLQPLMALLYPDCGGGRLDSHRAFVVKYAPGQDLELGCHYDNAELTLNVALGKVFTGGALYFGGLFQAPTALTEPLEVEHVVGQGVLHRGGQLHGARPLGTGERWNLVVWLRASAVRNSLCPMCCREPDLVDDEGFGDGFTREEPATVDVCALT
UniProt Q96RD7, whole entry, looked up: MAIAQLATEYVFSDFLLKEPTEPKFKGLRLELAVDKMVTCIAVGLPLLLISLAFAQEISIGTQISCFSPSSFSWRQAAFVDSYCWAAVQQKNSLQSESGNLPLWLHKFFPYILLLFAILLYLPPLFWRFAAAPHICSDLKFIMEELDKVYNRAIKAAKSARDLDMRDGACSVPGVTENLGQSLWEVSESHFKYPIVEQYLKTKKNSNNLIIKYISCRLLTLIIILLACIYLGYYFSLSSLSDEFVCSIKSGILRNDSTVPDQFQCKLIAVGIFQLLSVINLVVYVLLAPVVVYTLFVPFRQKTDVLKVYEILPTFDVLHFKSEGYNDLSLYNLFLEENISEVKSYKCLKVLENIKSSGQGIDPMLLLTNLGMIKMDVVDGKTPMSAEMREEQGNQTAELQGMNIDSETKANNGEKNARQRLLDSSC
UniProt Q5SWX8: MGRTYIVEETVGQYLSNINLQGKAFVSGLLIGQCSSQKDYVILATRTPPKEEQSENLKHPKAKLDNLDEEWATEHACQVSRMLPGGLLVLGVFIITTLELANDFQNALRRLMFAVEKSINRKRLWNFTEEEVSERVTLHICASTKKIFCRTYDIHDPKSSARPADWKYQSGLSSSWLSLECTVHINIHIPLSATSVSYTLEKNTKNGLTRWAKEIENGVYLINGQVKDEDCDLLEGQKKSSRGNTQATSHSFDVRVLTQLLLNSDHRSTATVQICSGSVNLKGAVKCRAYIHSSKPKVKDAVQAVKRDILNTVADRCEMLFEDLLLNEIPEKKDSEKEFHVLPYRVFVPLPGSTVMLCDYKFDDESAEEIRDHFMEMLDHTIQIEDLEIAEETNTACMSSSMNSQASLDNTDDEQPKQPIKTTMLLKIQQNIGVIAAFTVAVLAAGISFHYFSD
UniProt O96013: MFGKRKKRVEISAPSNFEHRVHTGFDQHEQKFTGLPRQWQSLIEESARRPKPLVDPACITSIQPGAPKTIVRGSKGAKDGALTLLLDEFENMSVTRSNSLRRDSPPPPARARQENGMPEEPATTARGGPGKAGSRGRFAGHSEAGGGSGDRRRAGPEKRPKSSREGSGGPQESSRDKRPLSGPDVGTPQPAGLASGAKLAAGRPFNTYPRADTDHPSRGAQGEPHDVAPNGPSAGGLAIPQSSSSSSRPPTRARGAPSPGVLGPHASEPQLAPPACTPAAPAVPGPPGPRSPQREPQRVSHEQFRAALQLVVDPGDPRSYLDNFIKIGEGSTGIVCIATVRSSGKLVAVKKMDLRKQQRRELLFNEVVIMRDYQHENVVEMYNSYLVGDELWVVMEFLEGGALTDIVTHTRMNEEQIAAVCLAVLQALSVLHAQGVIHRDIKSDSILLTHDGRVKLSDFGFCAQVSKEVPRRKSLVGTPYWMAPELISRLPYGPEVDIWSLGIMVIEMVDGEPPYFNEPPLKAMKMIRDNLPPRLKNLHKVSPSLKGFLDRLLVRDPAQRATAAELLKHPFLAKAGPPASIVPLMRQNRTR

[2] = compound: CC1=C(SC2=C1C(=N[C@H](C3=NN=C(N32)C)CC(=O)N)C4=CC=C(C=C4)Cl)C
Procedure, shortened: as §1

[3] = compound: CC1=C2C(=CC=C1)N=C(N(C2=O)C3=CC=CC=C3C)CN4C=NC5=C(N=CN=C54)N
Procedure, shortened: as §1

[4] = compound: Cc1sc2c(c1C)C(c1ccc(Cl)cc1)=N[C@@H](CC(=O)OC(C)(C)C)c1nnc(C)n1-2
Procedure, shortened: as §1

[5] = compound: c1ccc([C@@H]2C[C@H]2NC2CCNCC2)cc1
Procedure, shortened: as §1

Measured: log2 fold change

ORC5 (UniProt O43913)
inactive: [1] -0.037 | [2] -0.022 | [3] 0.029 | [4] 0.003 | [5] 0.021

NXPE1 (UniProt F5H0Y6)
inactive: [1] 0.043 | [2] -0.11

PACC1 (UniProt Q9H813)
inactive: [1] 0.078 | [2] -0.057 | [3] 0.222 | [4] -0.097 | [5] 0.002

NUP37 (UniProt Q8NFH4)
inactive: [1] 0.029 | [2] -0.005 | [3] 0.002 | [4] 0.032 | [5] -0.009

OXCT1 (UniProt P55809)
inactive: [1] 0.009 | [2] 0.04 | [3] 0.013 | [4] 0.017 | [5] 0.035

NUP205 (UniProt Q92621)
inactive: [1] -0.042 | [2] -0.019 | [3] 0.045 | [4] 0.006 | [5] -0.001

PALM3 (UniProt A6NDB9)
inactive: [1] 0.023 | [2] 0.004 | [3] 0.03 | [4] -0.01 | [5] -0.017

PANK2 (UniProt Q9BZ23)
inactive: [1] 0.024 | [2] 0.081 | [3] -0.021 | [4] 0.019 | [5] -0.077

PACS1 (UniProt Q6VY07)
inactive: [1] -0.013 | [2] 0.023 | [3] 0.041 | [4] -0.02 | [5] -0.006

NUP155 (UniProt O75694)
inactive: [1] -0.018 | [2] 0.039 | [3] 0.091 | [4] -0.032 | [5] 0.054

P3H1 (UniProt Q32P28)
inactive: [1] 0.032 | [2] -0.016 | [3] -0.025 | [4] -0.006 | [5] -0.011

OGFOD2 (UniProt Q6N063)
inactive: [1] -0.079 | [2] 0.049 | [3] -0.07 | [4] 0.033 | [5] 0.076

P4HA2 (UniProt O15460)
inactive: [1] 0.013 | [2] 0.021 | [3] 0.004 | [4] -0.018 | [5] 0.014

OSBPL11 (UniProt Q9BXB4)
inactive: [1] -0.027 | [2] -0.064 | [3] 0.028 | [4] -0.026 | [5] -0.004

PANX1 (UniProt Q96RD7)
inactive: [1] 0.123 | [2] 0.105 | [3] -0.056 | [4] -0.04 | [5] -0.018

Reprinted at random: 2 records from the list
OGFOD2 (UniProt Q6N063)
inactive: [1] -0.079 | [2] 0.049 | [3] -0.07 | [4] 0.033 | [5] 0.076

PANX1 (UniProt Q96RD7)
inactive: [1] 0.123 | [2] 0.105 | [3] -0.056 | [4] -0.04 | [5] -0.018

More entries.

PAPSS1 (UniProt O43252)
inactive: [1] 0.032 | [2] 0.013 | [3] 0.029 | [4] 0.002 | [5] -0.038

P4HB (UniProt P07237)
inactive: [1] 0.049 | [2] -0.008 | [3] -0.003 | [4] -0.003 | [5] -0.002

OTUB1 (UniProt Q96FW1)
inactive: [1] -0.013 | [2] 0.024 | [3] -0.02 | [4] -0.015 | [5] -0.033

ODR4 (UniProt Q5SWX8)
inactive: [1] 0.035 | [2] 0.029 | [3] 0.063 | [4] 0.031 | [5] 0.066

PARD3 (UniProt Q8TEW0)
inactive: [1] 0.078 | [2] 0.063 | [3] -0.028 | [4] 0.09 | [5] -0.024

OSBPL2 (UniProt Q9H1P3)
inactive: [1] -0.004 | [2] 0.108 | [3] -0.036 | [4] 0.006 | [5] -0.025

PAK4 (UniProt O96013)
inactive: [1] -0.06 | [2] -0.03 | [3] -0.018 | [4] -0.021 | [5] -0.14

NUP98 (UniProt P52948)
inactive: [1] -0.018 | [2] -0.03 | [3] 0.037 | [4] 0.052 | [5] -0.003

NUP58 (UniProt Q9BVL2)
inactive: [1] 0.047 | [2] -0.025 | [3] 0.039 | [4] -0.046 | [5] -0.053

PAK1 (UniProt Q13153)
inactive: [1] 0.029 | [2] -0.009 | [3] -0.011 | [4] 0.015 | [5] -0.126
